Read-outs that look alike come from different tables or passages of the source. These are yes or no findings as the source states them, for the method shown. In cells and extracts the contact can be indirect. Some entries that bind do so weakly or less than the wild type.

Protein sequences, listed by entry. Tags and fused reporters are not part of them.
UniProt Q61025: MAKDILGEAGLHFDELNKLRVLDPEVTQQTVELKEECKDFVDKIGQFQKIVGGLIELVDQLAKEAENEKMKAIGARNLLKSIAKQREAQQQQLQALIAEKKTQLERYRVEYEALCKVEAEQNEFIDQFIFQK

Assay [1] addresses T1, Tubby-like protein 3 (TULP3) (mouse (endogenous in N2a)) (UniProt O88413).
T1 sequence: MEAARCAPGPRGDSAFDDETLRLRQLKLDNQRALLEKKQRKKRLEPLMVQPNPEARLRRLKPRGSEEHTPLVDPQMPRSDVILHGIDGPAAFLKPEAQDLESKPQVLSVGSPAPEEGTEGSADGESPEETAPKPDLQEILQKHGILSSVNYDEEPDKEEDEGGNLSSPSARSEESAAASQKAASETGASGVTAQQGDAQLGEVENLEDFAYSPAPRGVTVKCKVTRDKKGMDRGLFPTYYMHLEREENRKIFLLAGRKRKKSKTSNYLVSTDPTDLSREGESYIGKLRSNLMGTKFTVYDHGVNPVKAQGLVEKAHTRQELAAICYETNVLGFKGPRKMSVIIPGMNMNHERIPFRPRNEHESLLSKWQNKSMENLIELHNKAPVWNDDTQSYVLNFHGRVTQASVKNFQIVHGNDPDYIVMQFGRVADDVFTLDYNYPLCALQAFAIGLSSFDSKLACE
In words: co-IP; rabbit anti-TULP3 antibody (1 µg) on Dynabeads Protein G, incubated with 400 µg of N2a cell lysate (RIPA, protease/phosphatase inhibitors) overnight at 4 °C, three washes, western blot; control rabbit IgG.

Assay [2] deals with T1, Tubby-like protein 3 (TULP3) (mouse (endogenous in N2a)). Described as above. This is another data set of the same source.

As for IFT20 (from UniProt Q61025 1-132), the binding result in assay [1] was “binds”.

B1: GPR158 (receptor, UniProt Q8C419 25-1200)
chain: SLDPPGRPDSPRERTPRGKQHGQQLPRASAPDPSIPWSRSTDGTILAQKLAEEVPVDVASYLYTGDFHQLKRANCSGRYELAGLPGKSPSLASSHPSLHGALDTLTHATNFLNMMLQSNKSREQTVQDDLQWYQALVRSLLEGEPSISRAAITFSTESLSTPAPQVFLQATREESRILLQDLSSSAHHLANATLETEWFHGLRRKWRPHLHRRGSNQGPRGLGHSWRRRDGLGGDRSHVKWSPPYLECENGSYKPGWLVTLSAAFYGLQPNLVPEFRGVMKVDISLQKVDIDQCSSDGWFSGTHKCHLNNSECMPIKGLGFVLGAYQCICKAGFYHPRVFSVNNFQRRGPDHHFSGSTKDVSEETHVCLPCREGCPFCADDRPCFVQEDKYLRLAIISFQALCMLLDFVSMLVVYHFRKAKSIRASGLILLETILFGSLLLYFPVVILYFEPSTFRCILLRWARLLGFATVYGTVTLKLHRVLKVFLSRTAQRIPYMTGGRVMRMLAVIVLVVFWFLVGWTSSMCQNLERDILLVGQGQTSDHLTFNMCLIDRWDYMTAVAEFLFLLWGIYLCYAVRTVPSAFHEPRYMAVAVHNELIITAIFHTIRFVLASRLQPDWMLMLYFAHAHLTVTVTIGLLLIPKFSHSSNNPRDDIATEAYEDELDMGRSGSYLNSSINSAWSEHSLDPEDIRDELKKLYAQLEIYKRKKMITNNPHLQKKRCSKKGLGRSIMRRITEIPETVSRQCSKEDKEGTDHSAAKGTGLVRKNPTESSGNTGRPKEESLKNRVFSLKKSHSTYDHVRDQTVESSSLPMESQEEEATENSTLESLSSKKLTQKLKEDSEAESTESVPLVCKSASAHNLSSEKKPGHPRTSMLQKSLSVIASAKEKTLGLAGKTQTLVMEDRAKSQKPKDRETIRKYSNSDNVETIPNSGHMEEPRKPQKSGIMKQQRVSLPTANPDVSSGITQIKDNFDIGEVCPWEVYDLTPGPMPSEPKAQKHVSIAASEVEQNPASFLKEKSYHKSKATEGLYQANHKSIDKTEVCPWEIHSQSLLEDENRLISKTPVLPGRAREENGSQLYTTNMCAGQYEELPHKVVAPKVENENLNQMGDQEKQTSSSVDIIPGSCNSSNNSHQPLTSRAEVCPWEFEPLEQPNAERSVTLPASSALSANKIPGPQK
Take B1: in assay [2], the binding result is recorded as “binds”.

The record behind these values is paper PMC11922775.
